# In PMC11933671:
# Sequences of proteins named here, by UniProt entry; tags and fusion partners are left off. A change or cut given only in a name is not applied to a line headed by its entry.
# UniProt A0A509AJN7: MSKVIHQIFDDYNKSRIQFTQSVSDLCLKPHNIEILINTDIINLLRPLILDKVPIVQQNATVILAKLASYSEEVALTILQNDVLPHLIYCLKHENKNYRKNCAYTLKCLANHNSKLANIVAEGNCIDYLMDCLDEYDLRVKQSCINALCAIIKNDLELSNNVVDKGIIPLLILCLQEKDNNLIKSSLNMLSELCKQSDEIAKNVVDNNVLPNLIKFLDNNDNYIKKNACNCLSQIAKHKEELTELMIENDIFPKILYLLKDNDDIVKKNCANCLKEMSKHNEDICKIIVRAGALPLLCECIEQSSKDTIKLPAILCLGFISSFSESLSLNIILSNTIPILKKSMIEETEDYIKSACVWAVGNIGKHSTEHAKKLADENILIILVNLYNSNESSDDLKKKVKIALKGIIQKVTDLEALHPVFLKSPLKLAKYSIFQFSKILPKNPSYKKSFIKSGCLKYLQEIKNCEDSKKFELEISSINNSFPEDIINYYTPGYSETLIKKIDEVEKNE
# UniProt A0A509AJY2: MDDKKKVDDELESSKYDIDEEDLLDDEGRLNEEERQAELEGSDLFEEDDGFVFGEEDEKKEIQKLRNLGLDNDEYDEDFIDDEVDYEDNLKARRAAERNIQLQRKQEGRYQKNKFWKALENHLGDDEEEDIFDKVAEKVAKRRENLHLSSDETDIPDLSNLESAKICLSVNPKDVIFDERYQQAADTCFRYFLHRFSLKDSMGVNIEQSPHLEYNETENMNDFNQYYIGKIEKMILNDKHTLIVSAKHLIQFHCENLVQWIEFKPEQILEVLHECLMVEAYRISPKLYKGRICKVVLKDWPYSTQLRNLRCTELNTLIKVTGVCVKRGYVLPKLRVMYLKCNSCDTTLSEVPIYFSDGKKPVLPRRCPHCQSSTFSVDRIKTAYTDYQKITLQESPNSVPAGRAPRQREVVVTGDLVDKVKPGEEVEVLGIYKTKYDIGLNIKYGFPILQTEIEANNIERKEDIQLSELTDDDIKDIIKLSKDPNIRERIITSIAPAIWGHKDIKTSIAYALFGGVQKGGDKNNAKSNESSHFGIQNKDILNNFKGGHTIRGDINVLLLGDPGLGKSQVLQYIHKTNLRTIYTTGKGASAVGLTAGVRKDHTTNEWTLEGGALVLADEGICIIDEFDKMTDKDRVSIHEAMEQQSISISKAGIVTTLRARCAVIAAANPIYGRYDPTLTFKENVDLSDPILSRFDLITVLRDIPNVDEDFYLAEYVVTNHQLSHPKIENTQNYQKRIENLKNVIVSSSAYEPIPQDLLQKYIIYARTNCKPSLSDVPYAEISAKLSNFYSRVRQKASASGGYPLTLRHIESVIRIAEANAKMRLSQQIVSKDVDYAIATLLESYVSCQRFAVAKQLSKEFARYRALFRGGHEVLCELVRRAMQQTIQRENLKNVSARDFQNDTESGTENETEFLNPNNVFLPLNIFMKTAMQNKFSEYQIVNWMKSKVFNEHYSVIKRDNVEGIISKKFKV
# UniProt A0A509ANU0: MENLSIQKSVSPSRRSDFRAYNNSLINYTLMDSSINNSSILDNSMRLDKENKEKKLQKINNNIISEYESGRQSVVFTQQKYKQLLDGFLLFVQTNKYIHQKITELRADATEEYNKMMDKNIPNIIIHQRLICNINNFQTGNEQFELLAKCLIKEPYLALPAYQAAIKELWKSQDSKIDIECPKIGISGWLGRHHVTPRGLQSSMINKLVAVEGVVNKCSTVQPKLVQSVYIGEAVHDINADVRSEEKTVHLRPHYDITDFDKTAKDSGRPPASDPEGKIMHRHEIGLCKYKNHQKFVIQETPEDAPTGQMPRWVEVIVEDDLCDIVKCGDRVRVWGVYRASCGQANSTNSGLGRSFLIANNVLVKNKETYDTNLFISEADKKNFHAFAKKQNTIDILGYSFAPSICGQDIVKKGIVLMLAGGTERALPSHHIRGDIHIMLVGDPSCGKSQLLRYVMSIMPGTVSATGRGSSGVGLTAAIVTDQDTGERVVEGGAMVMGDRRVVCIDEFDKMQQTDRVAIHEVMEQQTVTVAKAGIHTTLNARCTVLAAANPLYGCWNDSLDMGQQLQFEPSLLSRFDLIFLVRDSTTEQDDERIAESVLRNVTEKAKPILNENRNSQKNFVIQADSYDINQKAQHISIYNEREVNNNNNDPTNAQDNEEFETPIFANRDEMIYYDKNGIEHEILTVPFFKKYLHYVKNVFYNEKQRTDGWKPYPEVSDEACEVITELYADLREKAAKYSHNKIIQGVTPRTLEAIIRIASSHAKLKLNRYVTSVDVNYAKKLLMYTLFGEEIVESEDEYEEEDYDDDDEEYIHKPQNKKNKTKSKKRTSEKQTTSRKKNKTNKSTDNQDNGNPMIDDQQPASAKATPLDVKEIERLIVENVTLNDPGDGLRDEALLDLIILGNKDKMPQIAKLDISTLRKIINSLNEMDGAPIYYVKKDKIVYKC
# UniProt A0A509AMU8: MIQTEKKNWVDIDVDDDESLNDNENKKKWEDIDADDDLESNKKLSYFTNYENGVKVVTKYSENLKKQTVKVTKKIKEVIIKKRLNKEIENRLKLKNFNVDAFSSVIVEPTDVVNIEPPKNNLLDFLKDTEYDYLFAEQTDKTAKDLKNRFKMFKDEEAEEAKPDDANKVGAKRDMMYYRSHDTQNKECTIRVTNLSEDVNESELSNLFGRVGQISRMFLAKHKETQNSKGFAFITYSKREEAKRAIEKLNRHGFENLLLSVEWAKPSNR
# UniProt A0A509AJ64: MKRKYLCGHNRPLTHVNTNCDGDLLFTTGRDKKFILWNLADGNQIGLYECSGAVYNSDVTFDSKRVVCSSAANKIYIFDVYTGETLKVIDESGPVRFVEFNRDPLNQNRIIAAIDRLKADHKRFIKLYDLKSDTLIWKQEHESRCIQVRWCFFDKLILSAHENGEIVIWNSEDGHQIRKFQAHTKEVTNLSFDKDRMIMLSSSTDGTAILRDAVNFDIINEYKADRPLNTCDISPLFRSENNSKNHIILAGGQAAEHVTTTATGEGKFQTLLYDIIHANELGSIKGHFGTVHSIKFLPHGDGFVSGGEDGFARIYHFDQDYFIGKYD
# UniProt A0A509AGM7: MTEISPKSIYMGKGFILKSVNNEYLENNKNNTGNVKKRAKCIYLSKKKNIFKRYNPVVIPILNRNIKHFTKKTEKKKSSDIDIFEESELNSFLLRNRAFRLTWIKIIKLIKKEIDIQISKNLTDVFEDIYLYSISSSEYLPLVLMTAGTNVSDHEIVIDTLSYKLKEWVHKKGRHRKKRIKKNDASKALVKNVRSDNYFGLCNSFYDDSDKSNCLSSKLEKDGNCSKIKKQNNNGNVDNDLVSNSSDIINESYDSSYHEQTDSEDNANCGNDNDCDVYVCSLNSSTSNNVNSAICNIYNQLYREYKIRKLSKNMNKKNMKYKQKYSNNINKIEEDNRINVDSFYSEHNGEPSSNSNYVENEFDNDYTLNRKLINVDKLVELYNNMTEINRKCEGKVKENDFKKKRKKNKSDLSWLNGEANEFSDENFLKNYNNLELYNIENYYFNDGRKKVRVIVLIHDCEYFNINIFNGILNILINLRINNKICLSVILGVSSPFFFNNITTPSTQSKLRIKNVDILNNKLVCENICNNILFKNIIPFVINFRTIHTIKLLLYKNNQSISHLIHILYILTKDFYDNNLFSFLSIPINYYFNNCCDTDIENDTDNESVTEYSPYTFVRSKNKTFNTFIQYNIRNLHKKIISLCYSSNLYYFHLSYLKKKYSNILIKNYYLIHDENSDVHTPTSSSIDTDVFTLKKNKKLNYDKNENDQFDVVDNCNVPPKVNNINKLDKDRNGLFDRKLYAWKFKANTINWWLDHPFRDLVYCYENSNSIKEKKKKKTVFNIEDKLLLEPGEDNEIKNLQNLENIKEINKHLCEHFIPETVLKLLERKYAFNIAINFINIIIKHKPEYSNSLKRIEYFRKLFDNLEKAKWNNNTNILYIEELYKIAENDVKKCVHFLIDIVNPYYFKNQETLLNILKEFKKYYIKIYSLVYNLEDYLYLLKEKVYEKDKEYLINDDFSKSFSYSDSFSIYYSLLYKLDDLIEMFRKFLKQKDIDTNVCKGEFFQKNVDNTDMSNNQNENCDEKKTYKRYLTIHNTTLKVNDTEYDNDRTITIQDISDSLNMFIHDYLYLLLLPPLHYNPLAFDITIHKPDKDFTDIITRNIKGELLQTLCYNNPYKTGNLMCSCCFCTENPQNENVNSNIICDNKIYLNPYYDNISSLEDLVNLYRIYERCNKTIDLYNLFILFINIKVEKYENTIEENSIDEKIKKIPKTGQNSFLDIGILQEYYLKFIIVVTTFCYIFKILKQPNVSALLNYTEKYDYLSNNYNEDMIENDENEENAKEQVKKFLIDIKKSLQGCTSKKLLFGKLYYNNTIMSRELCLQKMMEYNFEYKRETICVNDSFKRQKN
# UniProt A0A509ASS0: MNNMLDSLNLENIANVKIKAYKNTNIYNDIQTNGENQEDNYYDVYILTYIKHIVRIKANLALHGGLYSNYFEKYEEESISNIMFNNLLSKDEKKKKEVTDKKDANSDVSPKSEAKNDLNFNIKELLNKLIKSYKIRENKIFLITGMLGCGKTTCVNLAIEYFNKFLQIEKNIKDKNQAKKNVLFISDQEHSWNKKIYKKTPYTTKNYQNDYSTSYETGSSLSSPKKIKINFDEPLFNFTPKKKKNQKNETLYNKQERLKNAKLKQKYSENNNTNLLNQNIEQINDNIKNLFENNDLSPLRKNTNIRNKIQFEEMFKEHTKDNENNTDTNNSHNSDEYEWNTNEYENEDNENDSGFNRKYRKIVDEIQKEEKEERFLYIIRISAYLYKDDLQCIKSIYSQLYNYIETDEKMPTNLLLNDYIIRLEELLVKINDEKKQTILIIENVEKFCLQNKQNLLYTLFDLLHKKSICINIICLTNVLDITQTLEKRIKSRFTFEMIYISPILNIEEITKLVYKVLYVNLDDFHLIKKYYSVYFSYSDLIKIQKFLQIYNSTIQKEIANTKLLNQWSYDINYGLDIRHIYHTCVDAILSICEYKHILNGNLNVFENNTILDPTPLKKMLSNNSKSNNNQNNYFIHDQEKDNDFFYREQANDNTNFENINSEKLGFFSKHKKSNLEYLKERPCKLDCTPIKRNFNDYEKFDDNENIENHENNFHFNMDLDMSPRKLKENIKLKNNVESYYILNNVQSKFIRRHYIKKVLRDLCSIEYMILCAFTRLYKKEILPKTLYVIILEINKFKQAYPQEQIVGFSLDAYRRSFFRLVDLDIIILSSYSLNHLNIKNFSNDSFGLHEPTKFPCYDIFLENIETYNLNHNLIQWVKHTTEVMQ
# UniProt A0A509ADR3: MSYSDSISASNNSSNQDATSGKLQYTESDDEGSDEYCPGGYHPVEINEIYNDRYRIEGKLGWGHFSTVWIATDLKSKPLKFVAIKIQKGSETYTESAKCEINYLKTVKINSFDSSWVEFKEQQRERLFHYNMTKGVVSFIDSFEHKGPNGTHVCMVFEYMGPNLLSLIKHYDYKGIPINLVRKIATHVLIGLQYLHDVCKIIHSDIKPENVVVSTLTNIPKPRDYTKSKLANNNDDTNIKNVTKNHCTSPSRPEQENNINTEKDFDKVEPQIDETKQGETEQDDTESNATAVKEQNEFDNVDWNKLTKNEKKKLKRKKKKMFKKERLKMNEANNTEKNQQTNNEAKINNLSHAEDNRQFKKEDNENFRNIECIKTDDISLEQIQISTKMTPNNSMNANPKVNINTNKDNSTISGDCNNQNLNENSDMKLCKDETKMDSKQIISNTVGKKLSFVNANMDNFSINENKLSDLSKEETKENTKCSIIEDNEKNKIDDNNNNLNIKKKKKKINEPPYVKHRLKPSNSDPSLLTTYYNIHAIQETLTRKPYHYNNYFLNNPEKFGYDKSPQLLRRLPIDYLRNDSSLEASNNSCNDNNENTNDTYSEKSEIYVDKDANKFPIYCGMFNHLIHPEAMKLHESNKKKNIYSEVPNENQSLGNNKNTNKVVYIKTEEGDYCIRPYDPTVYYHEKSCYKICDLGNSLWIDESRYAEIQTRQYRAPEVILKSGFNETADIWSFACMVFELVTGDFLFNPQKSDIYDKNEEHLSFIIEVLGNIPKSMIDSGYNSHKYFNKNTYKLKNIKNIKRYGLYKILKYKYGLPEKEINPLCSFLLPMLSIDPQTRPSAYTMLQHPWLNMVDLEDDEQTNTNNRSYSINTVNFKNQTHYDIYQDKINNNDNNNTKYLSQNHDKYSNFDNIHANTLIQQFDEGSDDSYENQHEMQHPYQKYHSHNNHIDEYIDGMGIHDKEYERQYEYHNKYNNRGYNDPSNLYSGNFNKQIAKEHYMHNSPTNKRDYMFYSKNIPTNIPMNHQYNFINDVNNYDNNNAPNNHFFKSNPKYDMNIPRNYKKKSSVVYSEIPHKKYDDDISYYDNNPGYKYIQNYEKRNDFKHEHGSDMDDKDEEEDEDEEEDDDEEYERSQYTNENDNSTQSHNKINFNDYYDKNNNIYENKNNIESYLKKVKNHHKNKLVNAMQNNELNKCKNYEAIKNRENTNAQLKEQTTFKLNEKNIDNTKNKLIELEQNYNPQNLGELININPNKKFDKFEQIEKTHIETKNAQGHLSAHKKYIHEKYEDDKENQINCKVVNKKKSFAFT
# What was measured:
# Test in all cases: affinity purification with mass spectrometry; GFP-Trap_A beads on lysates of male gametocytes 6 min post-activation, cross-linked with 1% formaldehyde before lysis; lysis buffer 10 mM Tris-HCl pH 7.5, 150 mM NaCl, 0.5 mM EDTA, 0.5% Nonidet P-40 Substitute; 2 h at 4°C; on-bead trypsin digest, LC-MS/MS; three biological replicates; hits absent from the WT-GFP control
# [1] = target: MAP2-GFP (mitogen-activated protein kinase-2 with C-terminal GFP) (P. berghei)
# [2] = target: SRPK1-GFP (serine/arginine-rich protein kinase with C-terminal GFP) (P. berghei)
# [3] = target: T1, CDPK4-GFP (calcium-dependent protein kinase-4 with C-terminal GFP) (P. berghei) (UniProt P62345)
# T1 sequence: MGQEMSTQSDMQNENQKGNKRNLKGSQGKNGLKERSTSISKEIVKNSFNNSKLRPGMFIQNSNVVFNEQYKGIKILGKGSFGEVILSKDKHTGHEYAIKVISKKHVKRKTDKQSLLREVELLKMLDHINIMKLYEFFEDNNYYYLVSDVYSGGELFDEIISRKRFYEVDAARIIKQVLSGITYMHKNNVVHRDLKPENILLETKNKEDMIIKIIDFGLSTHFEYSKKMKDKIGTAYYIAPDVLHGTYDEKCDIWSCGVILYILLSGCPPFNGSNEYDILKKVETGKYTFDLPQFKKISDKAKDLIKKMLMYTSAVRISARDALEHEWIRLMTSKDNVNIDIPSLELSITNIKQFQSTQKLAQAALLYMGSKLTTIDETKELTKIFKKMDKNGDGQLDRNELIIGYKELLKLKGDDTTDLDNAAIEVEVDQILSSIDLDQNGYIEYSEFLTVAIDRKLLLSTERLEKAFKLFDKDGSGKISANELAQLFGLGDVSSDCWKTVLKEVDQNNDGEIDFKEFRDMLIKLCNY
binding [1],binding [2],binding [3],Substance
binds,binds,,Armadillo repeat protein PF16 (from UniProt A0A509AJN7)
,binds,,"Centrin-2, putative (from UniProt A0A509APL0)"
,binds,no binding,"DNA replication licensing factor MCM2, putative (from UniProt A0A509AJY2)"
binds,,no binding,"DNA replication licensing factor MCM3, putative (from UniProt A0A509ANU0)"
binds,binds,no binding,"DNA replication licensing factor MCM4, putative (from UniProt A0A509AQA8)"
binds,,no binding,"DNA replication licensing factor MCM5, putative (from UniProt A0A509AH12)"
binds,,no binding,"DNA replication licensing factor MCM6, putative (from UniProt A0A509AKY6)"
binds,binds,no binding,"DNA replication licensing factor MCM7, putative (from UniProt A0A509AJ17)"
,,binds,"Eukaryotic translation initiation factor 3 subunit E, putative (from UniProt A0A509ANV0)"
,binds,,"Eukaryotic translation initiation factor 3 subunit G, putative (from UniProt A0A509AMU8)"
,binds,,"Eukaryotic translation initiation factor 3 subunit I, putative (from UniProt A0A509AJ64)"
,binds,,Heat shock protein 70 (from UniProt Q8WT39 1-692)
binds,,,"Kinesin-8B, putative (from UniProt A0A509AB64)"
binds,,binds,"Kinesin-13, putative (from UniProt A0A509AU53)"
binds,,,"Kinesin-15, putative (from UniProt A0A509AVN2)"
,,binds,"ORC3 domain-containing protein, putative (from UniProt A0A509AGM7)"
,,binds,"Origin recognition complex subunit 1, putative (from UniProt A0A509AH43)"
,,binds,"Origin recognition complex subunit 2, putative (from UniProt A0A509AIK1)"
,,binds,"Origin recognition complex subunit 4, putative (from UniProt A0A509ASS0)"
binds,,binds,"Origin recognition complex subunit 5, putative (from UniProt A0A509ADH7)"
binds,,binds,"Protein phosphatase PPM11, putative (from UniProt A0A509AJ02) (enzyme)"
,,binds,"Serine/threonine protein kinase, putative (SRPK1) (from UniProt A0A509ADR3) (enzyme)"
,,binds,Serine/threonine protein phosphatase 5 (from UniProt A0A509AMH5) (enzyme)
binds,binds,,"Structural maintenance of chromosomes protein 1, putative (from UniProt A0A509APU6)"
binds,,binds,Structural maintenance of chromosomes protein 2 (from UniProt A0A509AU41)
binds,binds,,"Structural maintenance of chromosomes protein 3, putative (from UniProt A0A509AJX0)"
binds,,binds,Structural maintenance of chromosomes protein 4 (from UniProt A0A509ALR5)
,,binds,catalytic subunit of DNA polymerase alpha (P. berghei (endogenous in gametocytes)) (enzyme)
,,binds,catalytic subunit of DNA polymerase epsilon (P. berghei (endogenous in gametocytes)) (enzyme)

# Results are given in words; binding and its absence hold for the method and conditions named. Binding seen in cells or lysates may run through a third protein. A yes stands for co-enrichment or nearness to the bait. Other partners may have been found. For part of these data: No binding means not detected with the bait. For part of these data: Sequences can lack the tags named with a protein.
